Experimental data reported in patent publication US20220096654A1, “PYRROLOBENZODIAZEPINE-ANTIBODY CONJUGATES AND USES THEREOF” (ADC THERAPEUTICS SA, priority 2020, published 2022).
No constants are given. Whether binding was seen depends on the method and setting. Some results given as binding are weak or reduced against the parent protein; the word gives no strength.

Chains of the proteins cited; added tags and fusions are not shown. Lines headed by an entry give the natural chain unless they say otherwise; changes in a name come on top.
UniProt P08575: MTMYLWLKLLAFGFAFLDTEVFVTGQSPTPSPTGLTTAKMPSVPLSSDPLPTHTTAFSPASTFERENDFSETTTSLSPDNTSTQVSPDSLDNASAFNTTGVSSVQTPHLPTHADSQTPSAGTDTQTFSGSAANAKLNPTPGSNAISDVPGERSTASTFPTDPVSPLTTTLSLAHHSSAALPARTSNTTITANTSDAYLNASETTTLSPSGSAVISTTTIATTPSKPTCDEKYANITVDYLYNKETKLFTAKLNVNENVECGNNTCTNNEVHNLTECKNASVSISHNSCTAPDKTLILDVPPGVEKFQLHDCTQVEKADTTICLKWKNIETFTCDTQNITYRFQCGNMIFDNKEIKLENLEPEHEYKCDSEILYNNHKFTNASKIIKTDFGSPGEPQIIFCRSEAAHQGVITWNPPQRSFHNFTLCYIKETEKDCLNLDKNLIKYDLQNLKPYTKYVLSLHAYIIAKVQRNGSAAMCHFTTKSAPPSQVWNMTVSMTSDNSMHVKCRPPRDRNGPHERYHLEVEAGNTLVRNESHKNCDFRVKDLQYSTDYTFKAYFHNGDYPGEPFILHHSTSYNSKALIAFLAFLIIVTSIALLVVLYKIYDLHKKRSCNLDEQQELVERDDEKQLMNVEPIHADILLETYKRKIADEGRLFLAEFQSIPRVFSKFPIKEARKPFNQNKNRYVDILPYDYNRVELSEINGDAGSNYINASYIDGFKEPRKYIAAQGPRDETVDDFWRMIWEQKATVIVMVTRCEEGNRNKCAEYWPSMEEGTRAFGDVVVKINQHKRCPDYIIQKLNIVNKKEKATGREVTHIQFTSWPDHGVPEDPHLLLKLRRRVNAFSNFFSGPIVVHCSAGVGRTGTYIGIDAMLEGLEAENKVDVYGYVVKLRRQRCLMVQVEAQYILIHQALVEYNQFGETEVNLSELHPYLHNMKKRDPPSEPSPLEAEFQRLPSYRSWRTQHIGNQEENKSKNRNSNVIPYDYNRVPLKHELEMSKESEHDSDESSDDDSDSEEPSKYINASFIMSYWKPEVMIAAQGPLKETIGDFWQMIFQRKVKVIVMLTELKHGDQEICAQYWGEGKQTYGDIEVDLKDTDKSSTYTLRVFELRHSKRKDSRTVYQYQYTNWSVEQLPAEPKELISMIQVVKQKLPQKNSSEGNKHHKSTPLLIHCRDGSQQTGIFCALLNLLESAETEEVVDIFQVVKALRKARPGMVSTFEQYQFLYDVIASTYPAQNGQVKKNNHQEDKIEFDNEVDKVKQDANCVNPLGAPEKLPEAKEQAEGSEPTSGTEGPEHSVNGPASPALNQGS

Target: human CD45 (human) (UniProt P08575)
Test: indirect: saporin-mediated killing of CD45+ Jurkat cells through anti-rat IgG-saporin

| Binder | binding |
| --- | --- |
| YTH24.5 rat IgG2b anti-human CD45 monoclonal antibody (antibody, V domains shown) VH: QVNLLQSGAALVKPGASVKLSCKASSYTFTDYYIHWVKQSHGKTLEWIGYINPKSGFTNYNEKFRRKATLTVDKSTNTAYMDISRLTSEDSATYYCTRRTGVIPMDAWGQGASVTVSS VL: DVVMTQTPVSLSVSLGGQVSISCRSSQSFVSSDGNTYLNWYLQKPGQSPQLLIYKVSNRLSGVPDRFSGSGSGTDFTLKISRVEHDDLGVYYCGQASKIPLTFGSGTKLEIKR | binds |
| YTH54.12 rat IgG2b anti-human CD45 monoclonal antibody (antibody, V domains shown) VH: EVQLVESGGGLVQPGGSMKLSCAASGFTFSDYYMAWVRQAPKKGLEWVASMSFAGSSTYYGDSVKGRFTISRDNAKTTLYLQMNSLRSEDTATYYCARMYTTDYYLYWYFDFWGPGTMVTVSS VL: DVQMTQSPSYLAASPGESVSISCKASKSISNYLAWYQQKPGEANKILIYSGSTLQSGTPSRFSGSGSGTDFSLTIRNLEPEDFAVYYCQQYDEKPLTFGSGTKLEIKR | binds |
